We go through 2 molecules from paper PMC11445491.

Results are given in words; binding and its absence hold for the method and conditions named. In cells and extracts the contact can be indirect. Binding can be weak; no strength is given.

Experiment [1] concerns the target tumour necrosis factor receptor 1 (TNFR1), endogenous (human (endogenous in HT-29, HeLa, Panc-1)). In words: co-IP; HeLa cells, endogenous proteins; anti-TNFR1 antibodies and protein G agarose; 250 ng/ml EGF for 15 min for the EGFR pair; TNF-α, T/Bi or T/C with or without EGF for the other partners.
Experiment [2] shares this target. In words: co-IP; HT-29 cells, endogenous proteins; lysis buffer with 1.0% Triton X-100, 150 mM NaCl, pH 7.5; anti-TNFR1 antibodies and protein G agarose (the text also names anti-EGFR and anti-p-EGFR); cells untreated or treated with TNF-α, T/Bi, T/C or T/Bi/Z, with or without erlotinib, EGFR WT or knockout.
Experiment [3] has the same target. In words: co-IP; Panc-1 cells, endogenous TNFR1 complex, T/Bi with or without EGF (Fig. S14D).

B1: IKKβ, endogenous (protein, UniProt O14920 1-756)
chain: MSWSPSLTTQTCGAWEMKERLGTGGFGNVIRWHNQETGEQIAIKQCRQELSPRNRERWCLEIQIMRRLTHPNVVAARDVPEGMQNLAPNDLPLLAMEYCQGGDLRKYLNQFENCCGLREGAILTLLSDIASALRYLHENRIIHRDLKPENIVLQQGEQRLIHKIIDLGYAKELDQGSLCTSFVGTLQYLAPELLEQQKYTVTVDYWSFGTLAFECITGFRPFLPNWQPVQWHSKVRQKSEVDIVVSEDLNGTVKFSSSLPYPNNLNSVLAERLEKWLQLMLMWHPRQRGTDPTYGPNGCFKALDDILNLKLVHILNMVTGTIHTYPVTEDESLQSLKARIQQDTGIPEEDQELLQEAGLALIPDKPATQCISDGKLNEGHTLDMDLVFLFDNSKITYETQISPRPQPESVSCILQEPKRNLAFFQLRKVWGQVWHSIQTLKEDCNRLQQGQRAAMMNLLRNNSCLSKMKNSMASMSQQLKAKLDFFKTSIQIDLEKYSEQTEFGITSDKLLLAWREMEQAVELCGRENEVKLLVERMMALQTDIVDLQRSPMGRKQGGTLDDLEEQARELYRRLREKPRDQRTEGDSQEMVRLLLQAIQSFEKKVRVIYTQLSKTVVCKQKALELLPKVEEVVSLMNEDEKTVVRLQEKRQKELWNLLKIACSKVRGPVSGSPDSMNASRLSQPGQLMSQPSTASNSLPEPAKKSEELVAEAHNLCTLLENAIQDTVREQDQSFTALDWSWLQTEEEEHSCLEQAS
B1: the binding entry in experiment [1] was “binds”.

B2: TNFR1 associated death domain protein (TRADD), endogenous (protein, UniProt Q15628 1-312)
chain: MAAGQNGHEEWVGSAYLFVESSLDKVVLSDAYAHPQQKVAVYRALQAALAESGGSPDVLQMLKIHRSDPQLIVQLRFCGRQPCGRFLRAYREGALRAALQRSLAAALAQHSVPLQLELRAGAERLDALLADEERCLSCILAQQPDRLRDEELAELEDALRNLKCGSGARGGDGEVASAPLQPPVPSLSEVKPPPPPPPAQTFLFQGQPVVNRPLSLKDQQTFARSVGLKWRKVGRSLQRGCRALRDPALDSLAYEYEREGLYEQAFQLLRRFVQAEGRRATLQRLVEALEENELTSLAEDLLGLTDPNGGLA
As for B2, the binding entry in experiment [1], in experiment [2] and in experiment [3] was “binds” throughout.
